The list shows a part of the results.
compound: CS(=O)(=O)CCNCc1ccc(-c2ccc3ncnc(Nc4ccc(OCc5cccc(F)c5)c(Cl)c4)c3c2)o1 [lapatinib]; test: log2 fold change, soluble protein after heating vs DMSO (PISA); higher = thermal stabilisation; K562 lysate, 10 uM; active = over 0.2 and 3.5 SD of the protein, either way, in both replicates (recomputed)
Procedure, shortened: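 Soluble protein was defined as the supernatant remaining after 21,000xg for 90 min, following pooling of heated aliquots and adjustment to 0.5% NP-40 at 4°C. Before that, crude K562 extract at 1 mg/mL protein in PBS pH 7.4 with 1 mM MgCl2 was treated with 10 μM compound for 30 min and heated for 3 min across 48°C-58°C. Quantification used TMTpro 16plex LC-MS/MS with channel sums equalised, and values are log-two fold changes in thermal stability relative to solvent controls from duplicates.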

By UniProt entry, the sequences of proteins in these tests, tags left out. Where a name states a change or a piece, a line headed by the entry shows the natural chain unless it says otherwise.
UniProt P56385: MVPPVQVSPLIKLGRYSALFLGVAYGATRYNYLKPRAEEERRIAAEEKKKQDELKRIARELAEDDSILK
UniProt P56378: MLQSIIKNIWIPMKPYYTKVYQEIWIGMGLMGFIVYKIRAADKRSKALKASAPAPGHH
UniProt Q2TAZ0: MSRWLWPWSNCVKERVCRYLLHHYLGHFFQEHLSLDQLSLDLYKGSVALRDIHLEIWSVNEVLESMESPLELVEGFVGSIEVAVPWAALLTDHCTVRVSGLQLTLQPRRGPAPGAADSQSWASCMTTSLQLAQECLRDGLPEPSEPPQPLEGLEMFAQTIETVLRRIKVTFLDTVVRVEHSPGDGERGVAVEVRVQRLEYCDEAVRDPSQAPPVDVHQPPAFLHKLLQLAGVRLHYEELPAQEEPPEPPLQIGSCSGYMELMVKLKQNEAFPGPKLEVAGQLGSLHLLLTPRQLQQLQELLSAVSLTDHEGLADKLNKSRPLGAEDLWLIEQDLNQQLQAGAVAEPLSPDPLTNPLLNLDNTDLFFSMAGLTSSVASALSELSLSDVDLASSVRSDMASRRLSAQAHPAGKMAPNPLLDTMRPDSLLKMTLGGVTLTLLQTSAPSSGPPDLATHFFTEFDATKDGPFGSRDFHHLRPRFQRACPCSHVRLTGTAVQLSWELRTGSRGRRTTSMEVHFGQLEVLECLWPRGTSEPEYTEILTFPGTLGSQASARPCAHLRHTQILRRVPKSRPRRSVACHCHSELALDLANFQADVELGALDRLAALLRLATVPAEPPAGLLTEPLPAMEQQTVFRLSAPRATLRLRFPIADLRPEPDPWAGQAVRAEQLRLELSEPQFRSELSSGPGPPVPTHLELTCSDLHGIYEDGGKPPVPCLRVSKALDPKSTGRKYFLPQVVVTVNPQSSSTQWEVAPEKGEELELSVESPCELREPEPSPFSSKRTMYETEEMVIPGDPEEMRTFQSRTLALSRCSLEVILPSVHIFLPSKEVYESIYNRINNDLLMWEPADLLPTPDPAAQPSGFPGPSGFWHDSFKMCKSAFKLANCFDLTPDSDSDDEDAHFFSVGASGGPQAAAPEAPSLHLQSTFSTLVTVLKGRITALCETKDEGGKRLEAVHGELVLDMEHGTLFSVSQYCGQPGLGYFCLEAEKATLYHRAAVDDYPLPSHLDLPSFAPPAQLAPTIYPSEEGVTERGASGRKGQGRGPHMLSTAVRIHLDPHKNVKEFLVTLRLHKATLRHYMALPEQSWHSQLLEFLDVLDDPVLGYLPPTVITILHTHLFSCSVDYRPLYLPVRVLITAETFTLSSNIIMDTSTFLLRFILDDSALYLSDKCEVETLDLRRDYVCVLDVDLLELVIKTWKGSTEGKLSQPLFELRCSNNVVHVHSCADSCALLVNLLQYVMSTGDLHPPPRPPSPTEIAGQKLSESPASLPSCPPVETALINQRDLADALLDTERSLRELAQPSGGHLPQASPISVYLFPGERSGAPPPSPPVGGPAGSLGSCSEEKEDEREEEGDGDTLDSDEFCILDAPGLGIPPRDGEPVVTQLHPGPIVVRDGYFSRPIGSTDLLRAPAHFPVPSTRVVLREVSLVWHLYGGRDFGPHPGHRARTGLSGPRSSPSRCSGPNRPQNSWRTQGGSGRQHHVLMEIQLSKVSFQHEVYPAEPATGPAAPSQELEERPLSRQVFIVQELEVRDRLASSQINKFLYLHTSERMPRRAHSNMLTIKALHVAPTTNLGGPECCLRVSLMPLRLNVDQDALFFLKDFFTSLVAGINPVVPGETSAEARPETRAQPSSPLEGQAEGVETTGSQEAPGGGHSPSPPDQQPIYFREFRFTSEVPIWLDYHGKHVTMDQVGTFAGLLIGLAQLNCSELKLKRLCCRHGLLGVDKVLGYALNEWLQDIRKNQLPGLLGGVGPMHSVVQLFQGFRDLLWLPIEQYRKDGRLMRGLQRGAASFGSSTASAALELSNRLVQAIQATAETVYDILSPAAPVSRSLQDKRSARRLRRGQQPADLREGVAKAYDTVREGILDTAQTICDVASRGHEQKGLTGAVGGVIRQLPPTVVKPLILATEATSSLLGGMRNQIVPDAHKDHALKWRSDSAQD
UniProt P18859: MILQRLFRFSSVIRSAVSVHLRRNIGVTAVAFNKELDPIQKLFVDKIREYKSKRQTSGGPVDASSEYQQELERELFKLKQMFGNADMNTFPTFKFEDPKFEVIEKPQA
UniProt Q9HD20: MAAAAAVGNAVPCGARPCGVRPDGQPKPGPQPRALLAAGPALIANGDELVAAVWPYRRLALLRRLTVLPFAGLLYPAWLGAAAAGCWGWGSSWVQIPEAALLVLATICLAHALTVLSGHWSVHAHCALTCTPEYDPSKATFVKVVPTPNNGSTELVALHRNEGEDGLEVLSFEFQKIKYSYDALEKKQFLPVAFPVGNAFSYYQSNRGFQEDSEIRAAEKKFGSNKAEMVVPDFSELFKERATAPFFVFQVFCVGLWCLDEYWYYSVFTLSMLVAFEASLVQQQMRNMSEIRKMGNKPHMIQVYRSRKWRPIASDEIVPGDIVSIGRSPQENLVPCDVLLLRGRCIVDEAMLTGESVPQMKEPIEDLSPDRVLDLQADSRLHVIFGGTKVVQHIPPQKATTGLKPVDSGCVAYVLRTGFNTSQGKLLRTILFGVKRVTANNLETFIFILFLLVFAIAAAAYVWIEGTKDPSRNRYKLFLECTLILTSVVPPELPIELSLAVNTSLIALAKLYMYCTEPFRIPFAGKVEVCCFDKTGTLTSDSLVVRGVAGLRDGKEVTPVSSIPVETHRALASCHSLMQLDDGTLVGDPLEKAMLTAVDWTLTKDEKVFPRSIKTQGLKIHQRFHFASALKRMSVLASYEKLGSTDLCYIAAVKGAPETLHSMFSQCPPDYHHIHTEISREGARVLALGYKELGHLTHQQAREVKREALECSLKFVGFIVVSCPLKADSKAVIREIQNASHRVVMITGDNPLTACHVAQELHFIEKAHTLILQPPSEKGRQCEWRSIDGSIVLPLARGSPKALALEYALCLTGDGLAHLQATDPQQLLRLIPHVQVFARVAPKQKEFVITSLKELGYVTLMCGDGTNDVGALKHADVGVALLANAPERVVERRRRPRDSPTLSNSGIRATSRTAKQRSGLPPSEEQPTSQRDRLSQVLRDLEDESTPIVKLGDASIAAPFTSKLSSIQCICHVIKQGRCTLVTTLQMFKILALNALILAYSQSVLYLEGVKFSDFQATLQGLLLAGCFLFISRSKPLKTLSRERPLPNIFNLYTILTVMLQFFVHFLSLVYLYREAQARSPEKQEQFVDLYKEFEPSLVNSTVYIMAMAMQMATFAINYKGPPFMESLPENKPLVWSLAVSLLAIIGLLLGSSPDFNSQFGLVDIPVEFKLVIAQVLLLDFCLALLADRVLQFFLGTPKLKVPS
UniProt Q67FW5: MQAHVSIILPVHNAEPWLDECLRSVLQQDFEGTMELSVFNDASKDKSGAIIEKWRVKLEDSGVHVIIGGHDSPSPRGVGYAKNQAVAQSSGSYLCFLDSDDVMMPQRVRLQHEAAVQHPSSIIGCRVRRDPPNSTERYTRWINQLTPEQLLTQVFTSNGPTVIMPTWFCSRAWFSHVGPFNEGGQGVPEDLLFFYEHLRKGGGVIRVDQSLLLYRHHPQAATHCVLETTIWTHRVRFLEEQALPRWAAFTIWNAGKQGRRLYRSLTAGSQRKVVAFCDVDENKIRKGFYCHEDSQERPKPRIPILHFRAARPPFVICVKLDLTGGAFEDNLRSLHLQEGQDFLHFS
UniProt P14415, whole entry, looked up: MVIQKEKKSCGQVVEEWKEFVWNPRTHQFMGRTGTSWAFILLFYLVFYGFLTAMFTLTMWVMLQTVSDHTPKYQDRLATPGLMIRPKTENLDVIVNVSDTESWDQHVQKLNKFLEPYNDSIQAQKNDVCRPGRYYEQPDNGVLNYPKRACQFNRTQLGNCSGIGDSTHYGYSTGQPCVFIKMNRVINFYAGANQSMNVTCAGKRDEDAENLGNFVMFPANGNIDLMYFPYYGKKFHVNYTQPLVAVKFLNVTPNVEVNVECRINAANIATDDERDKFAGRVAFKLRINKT
UniProt Q14CW9: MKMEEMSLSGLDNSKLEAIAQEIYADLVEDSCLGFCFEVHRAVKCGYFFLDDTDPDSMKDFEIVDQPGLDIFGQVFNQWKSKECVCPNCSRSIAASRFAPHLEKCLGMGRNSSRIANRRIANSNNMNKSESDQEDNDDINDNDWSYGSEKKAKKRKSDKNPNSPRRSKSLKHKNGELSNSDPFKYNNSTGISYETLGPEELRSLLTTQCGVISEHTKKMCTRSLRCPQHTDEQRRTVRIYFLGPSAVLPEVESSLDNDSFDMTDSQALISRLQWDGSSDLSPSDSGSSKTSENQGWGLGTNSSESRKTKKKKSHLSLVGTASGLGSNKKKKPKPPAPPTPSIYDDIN
UniProt B2RBV5: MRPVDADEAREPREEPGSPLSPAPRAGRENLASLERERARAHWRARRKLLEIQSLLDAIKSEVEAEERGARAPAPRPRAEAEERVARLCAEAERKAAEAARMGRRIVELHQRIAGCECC
UniProt Q676U5: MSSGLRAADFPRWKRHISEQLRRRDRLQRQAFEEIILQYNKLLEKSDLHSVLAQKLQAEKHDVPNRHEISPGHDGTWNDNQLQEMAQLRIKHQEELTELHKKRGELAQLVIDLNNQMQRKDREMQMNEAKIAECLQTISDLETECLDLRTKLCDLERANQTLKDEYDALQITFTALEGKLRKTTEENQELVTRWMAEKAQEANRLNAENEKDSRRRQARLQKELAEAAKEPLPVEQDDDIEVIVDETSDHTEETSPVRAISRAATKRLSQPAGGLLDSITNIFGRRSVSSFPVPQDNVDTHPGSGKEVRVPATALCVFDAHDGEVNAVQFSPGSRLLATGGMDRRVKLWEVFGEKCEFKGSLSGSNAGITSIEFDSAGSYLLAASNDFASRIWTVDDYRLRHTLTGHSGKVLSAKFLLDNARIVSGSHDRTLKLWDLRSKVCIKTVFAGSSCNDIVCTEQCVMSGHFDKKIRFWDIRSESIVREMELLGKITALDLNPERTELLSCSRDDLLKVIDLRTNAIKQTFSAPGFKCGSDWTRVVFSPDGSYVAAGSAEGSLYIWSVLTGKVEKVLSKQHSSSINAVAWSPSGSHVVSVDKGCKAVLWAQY
UniProt Q76L83: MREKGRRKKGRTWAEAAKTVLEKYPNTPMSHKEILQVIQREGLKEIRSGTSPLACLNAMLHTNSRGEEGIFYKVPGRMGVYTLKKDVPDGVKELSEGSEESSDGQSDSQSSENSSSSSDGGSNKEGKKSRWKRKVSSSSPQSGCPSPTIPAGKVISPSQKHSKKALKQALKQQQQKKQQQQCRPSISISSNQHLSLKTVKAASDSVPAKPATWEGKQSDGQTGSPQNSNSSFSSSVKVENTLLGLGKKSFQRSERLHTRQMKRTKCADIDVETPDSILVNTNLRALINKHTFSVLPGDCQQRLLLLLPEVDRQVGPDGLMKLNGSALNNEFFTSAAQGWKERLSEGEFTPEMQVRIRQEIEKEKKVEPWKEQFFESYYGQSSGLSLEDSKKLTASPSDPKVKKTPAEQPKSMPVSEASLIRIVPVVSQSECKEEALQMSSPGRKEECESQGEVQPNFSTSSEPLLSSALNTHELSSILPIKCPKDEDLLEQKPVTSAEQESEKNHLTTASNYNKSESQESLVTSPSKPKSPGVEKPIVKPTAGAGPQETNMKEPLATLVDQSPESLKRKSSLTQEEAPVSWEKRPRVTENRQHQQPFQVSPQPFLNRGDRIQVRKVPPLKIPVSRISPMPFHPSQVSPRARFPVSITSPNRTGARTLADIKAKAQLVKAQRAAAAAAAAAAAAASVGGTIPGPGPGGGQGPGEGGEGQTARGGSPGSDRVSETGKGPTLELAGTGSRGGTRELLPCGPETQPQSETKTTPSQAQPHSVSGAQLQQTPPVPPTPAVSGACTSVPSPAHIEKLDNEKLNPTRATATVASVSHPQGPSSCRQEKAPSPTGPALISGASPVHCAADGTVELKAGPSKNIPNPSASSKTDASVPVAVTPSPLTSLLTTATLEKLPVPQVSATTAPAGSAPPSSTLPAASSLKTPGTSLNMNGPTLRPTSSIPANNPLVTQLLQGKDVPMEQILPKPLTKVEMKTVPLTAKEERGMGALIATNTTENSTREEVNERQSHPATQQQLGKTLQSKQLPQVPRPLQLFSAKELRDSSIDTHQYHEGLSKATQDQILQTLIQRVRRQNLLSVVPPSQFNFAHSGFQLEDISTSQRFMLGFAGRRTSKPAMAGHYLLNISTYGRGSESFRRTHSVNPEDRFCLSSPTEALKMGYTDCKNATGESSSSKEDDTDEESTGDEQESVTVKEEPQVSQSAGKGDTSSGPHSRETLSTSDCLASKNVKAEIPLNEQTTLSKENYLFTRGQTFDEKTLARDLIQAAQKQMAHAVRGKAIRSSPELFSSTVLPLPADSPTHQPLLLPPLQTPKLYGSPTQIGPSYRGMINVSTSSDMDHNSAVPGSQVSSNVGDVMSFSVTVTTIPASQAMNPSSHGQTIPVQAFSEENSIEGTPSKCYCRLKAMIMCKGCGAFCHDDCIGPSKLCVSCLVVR

log2 fold change, inactive:
ATP5F1B (UniProt H0YI37) 0.087
AVL9 (UniProt Q8NBF6) 0.009
ATF7IP2 (UniProt Q5U623) -0.03
ATP5ME (UniProt P56385) 0.019
ATP11C, A0A067XG54 0.076
ATP5MPL (UniProt P56378) 0.037
ATG2A (UniProt Q2TAZ0) -0.148
ATP5PF isoform 2 (UniProt P18859) 0.04
ATM (UniProt Q13315) -0.018
ATP13A1 (UniProt Q9HD20) -0.115
ATP5F1B (UniProt F8W079) 0.055
B3GNT5 (UniProt Q9BYG0) -0.121
ATRN (UniProt O75882) 0.018
B3GNTL1 (UniProt Q67FW5) 0.048
ATP1B1 (UniProt P05026) -0.055
B4GALNT1 (UniProt Q00973) -0.146
ATP1B2 (UniProt P14415) -0.048
ATXN7L3 isoform 2 (UniProt Q14CW9) 0.051
AUH (UniProt Q13825) 0.165
NA (UniProt B2RBV5) -0.049
ATG16L1 (UniProt Q676U5) 0.002
ATE1 isoform 2 (UniProt O95260) 0.021
ASXL2 (UniProt Q76L83) 0.055

Random excerpt: 2 entries already listed, in no set order.
log2 fold change, inactive:
ATP1B2 (UniProt P14415) -0.048
AUH (UniProt Q13825) 0.165
